The campaign covered roughly 360,000 compounds. About 610 (0.17%) were called active. The inconclusive results got no clear call from the source; some entries with a clear call stand among them for comparison. No stated cut-off is given here; in the data, active means inhibition above about 30%; inconclusive means no clear call, values can overlap the other calls; inactive means below that.
What follows are molecules tested on Botulinum neurotoxin type A light chain protease (Clostridium botulinum A str. ATCC 3502) (assay: blockers of BoNT/A LC substrate cleavage – biochemical, flow cytometry, MLPCN library, primary screen (AID 588499; further: plate controls were buffer without enzyme for full effect and enzyme alone for no effect)). Settings: multiplex microsphere protease substrate cleavage, at 10 µM, active compounds read high.
With `Cc1cc(NS(=O)(=O)c2ccc(NC(=S)Nc3ccc(Cl)cc3C)cc2)no1` the inhibition was inconclusive: 13%. With `O=[N+]([O-])c1ccccc1OCCNCc1ccccc1` the inhibition was inconclusive: 6.7%. In the case of `Cc1cc2ccccn2c1C(=O)c1ccc([N+](=O)[O-])o1`, the inhibition is reported as inactive: -0.4%. For `CC(C)(C)/C(O)=C(/C#N)c1nc2ccccc2[nH]1`, the inhibition was inconclusive: -2.5%. For `O=C(O)c1ccccc1-c1ccccc1C(=O)NCCCO`, the inhibition was inconclusive: 1.2%. In the case of `COc1cccc(CNc2nc3cc(-c4cnn(Cc5ccccc5)c4)sc3c(=O)n2C)c1`, the inhibition is reported as inactive: -0.1%. `COc1ccc2[nH]c(=O)c(C(c3nnnn3C3CCCC3)N3CCN(Cc4ccc5c(c4)OCO5)CC3)cc2c1` (stereo not given) was tested, and the inhibition was inactive: 1.6%. For `COc1ccc(C(=O)/C=C/Nc2cccc(O)c2)cc1`, the inhibition was inconclusive: 4.7%. In the case of `COC(=O)c1sc(N)c(C(=O)OC)c1COC(=O)C1CC(=O)N(Cc2ccco2)C1` (stereo not given), the inhibition is reported as inactive: 2%. `O=[N+]([O-])c1ccccc1OCCCOc1cccc2cccnc12` was tested, and the inhibition was inconclusive: -1.4%. For `CN(C)[C@H]1N(C(=O)c2ccc(Br)cc2)N=C2c3ccccc3S(=O)(=O)N21`, the inhibition was inconclusive: 1.1%. For `O=C(CCCN1C(=O)c2ccccc2C1=O)Nc1ccc(S(=O)(=O)N2CCOCC2)cc1`, the inhibition was inconclusive: -4.7%. `CCCCn1c(SCC(=O)NCc2ccco2)nc2c(sc3ccccc32)c1=O` was tested, and the inhibition was inconclusive: -0.6%. In the case of `CCc1ccccc1NC(=O)CSc1nc2ccccc2n1CC(=O)N(C)C`, the inhibition is reported as inconclusive: 2.9%. With `CCOCCCNC(=O)c1c(C)c(C(=O)OCC)n(C)c1C` the inhibition was inconclusive: 9.7%. For `C[C@@H](NC(=O)c1[nH]cnc1C(=O)Nc1nccs1)c1ccccc1`, the inhibition was inactive: 0.2%. For `COc1ccc(C(=O)Nc2nnc(CCc3ccccc3)s2)c(OC)c1`, the inhibition was inactive: -1.6%. In the case of `CCC(C)(C)n1nnnc1C(c1cc2cccc(C)c2[nH]c1=O)N1CCCC1` (stereo not given), the inhibition is reported as inconclusive: 7.4%. For `CC(C)OC(=O)c1c2c(n3ccccc13)C(=O)c1ccccc1C2=O`, the inhibition was active: 78.9%. In the case of `N#Cc1ccc(-c2ccc(F)cc2)nc1Oc1ccc(F)cc1`, the inhibition is reported as inactive: 1.7%. In the case of `O=S(=O)(NCc1ccccn1)c1ccc(Br)s1`, the inhibition is reported as inconclusive: 6%. For `O=C(CCSc1ccccc1)Nc1nccs1`, the inhibition was inconclusive: -1.7%. In the case of `C/C(=N\OC(=O)Nc1ccccc1)c1cnn(-c2cc(C(F)(F)F)cc(C)n2)c1C`, the inhibition is reported as inconclusive: -32.7%. In the case of `CC(C)(C)NC(=O)C1CCN(C(=O)c2ccc(Br)cc2)CC1`, the inhibition is reported as inconclusive: 6.2%. For `O=C(c1cccs1)c1ccc(-c2cccs2)s1`, the inhibition was active: 33.4%. In the case of `Cc1cnc(NS(=O)(=O)c2ccc(Cl)cc2)c(Br)c1`, the inhibition is reported as inconclusive: -40.4%. `O=C1CCC(C(=O)Nc2ccccc2)N1` (stereo not given) was tested, and the inhibition was inactive: 0.6%. In the case of `CC(=O)c1csc(COc2ccccc2)n1`, the inhibition is reported as inconclusive: -3.6%. In the case of `Cc1c(CC(=O)Nc2ccc(Cl)cc2)sc2ccc(Cl)cc12`, the inhibition is reported as inconclusive: -2.2%. In the case of `NC(=O)c1ccc(NC(=O)CCCc2nc(-c3ccccc3Cl)no2)cc1`, the inhibition is reported as inconclusive: 1%. For `COC(=O)C1=C(C)N(C(C)C)C(=O)C1(NC(=O)C1CCCCC1)C(F)(F)F` (stereo not given), the inhibition was inconclusive: 4.8%. `CCOc1ccccc1C1C(C#N)=C(N)Oc2cc(C)n(C)c(=O)c21` (stereo not given) was tested, and the inhibition was inconclusive: 4.4%. `CC1(C)CC(=O)C(C2C3=C(CC(C)(C)CC3=O)OC3=C2C(=O)CC(C)(C)C3)=C(O)C1` was tested, and the inhibition was inconclusive: 2%. In the case of `C[C@@H]1CN([C@@H](C)CO)C(=O)c2cc(Br)cnc2O[C@H]1CN(C)C(=O)Cc1ccccn1`, the inhibition is reported as inactive: -0.3%. For `CCC(C)(C(=O)Nc1ccc(OC)cc1)N(C)C(=O)Cn1nnnc1N` (stereo not given), the inhibition was inactive: -1%. In the case of `Cc1ccc(S(=O)(=O)NCc2ccccc2)cc1C(=O)NC1CCC(C)CC1` (stereo not given), the inhibition is reported as inconclusive: 1%. For `COc1ccccc1CNC(=O)CCn1c(=O)[nH]c2ccsc2c1=O`, the inhibition was inconclusive: -5.2%. In the case of `COC(=O)N(C)C[C@@H]1OCc2cnnn2CCCC(=O)N([C@H](C)CO)C[C@H]1C`, the inhibition is reported as inactive: -0.1%. With `CC(=O)OC1(C(F)(F)F)Oc2ccccc2NC1=O` (stereo not given) the inhibition was inconclusive: 5.5%. With `CCC1NC(=O)c2cccnc2-n2c1nc1ccc(F)cc1c2=O` (stereo not given) the inhibition was inactive: 0.1%. `COc1cccc(NC(=S)NCc2ccc3c(c2)cc(C)n3C)c1` was tested, and the inhibition was active: 53.6%. With `CCCSC1=C(C#N)C(c2ccc(Cl)cc2Cl)CC(=O)N1` (stereo not given) the inhibition was inactive: -3%. For `CCCCn1c(SCC(=O)Nc2nnc(CC)s2)nc2c1c(=O)n(C)c(=O)n2C`, the inhibition was inconclusive: 4.6%. For `N#Cc1c(N)nc2c(c1-c1ccncc1)CCCCCC2`, the inhibition was inactive: -1.4%. With `CCN(CCO)c1ccc(N=Nc2cc(C)[nH]n2)cc1` the inhibition was inconclusive: -1.3%. `CCN(CC)CCN1C(=O)C(=O)/C(=C(/O)c2c(C)[nH]c(C(=O)OC)c2C)C1c1ccc(OC)cc1` (stereo not given) was tested, and the inhibition was inactive: -5.9%. For `CC(C)COc1ccc(C(=O)Nc2cc(S(=O)(=O)N3CCOCC3)ccc2N2CCCC2)cc1`, the inhibition was inactive: -1.5%. In the case of `Cc1ccccc1-n1c(=O)n(Cc2ccccc2)c(=O)c2[nH]cnc21`, the inhibition is reported as inconclusive: -11.7%. For `COC(=O)NC1CCS(=O)(=O)C1` (stereo not given), the inhibition was inconclusive: -5.7%. In the case of `O=C(NC1CCCCC1)c1cccc2c1C(=O)c1ccc(N3CCCC3)cc1S2(=O)=O`, the inhibition is reported as inactive: 1.6%. In the case of `CCN(CC)S(=O)(=O)c1ccc(S(=O)(=O)Nc2ccc3c(c2)oc2ccccc23)cc1`, the inhibition is reported as inconclusive: 2.8%. In the case of `CCOc1c(Cl)cc(CNCC(C)C)cc1OC`, the inhibition is reported as inconclusive: -2.9%. `CC(=O)Nc1ccc(Nc2cc(C)nc3ccccc23)cc1` was tested, and the inhibition was inactive: -7.1%. With `CC(C)CCn1c(CN2CCN(Cc3ccccc3)CC2)nc2c1c(=O)[nH]c(=O)n2C` the inhibition was inactive: -0.6%. In the case of `CC1=NNC(=O)C1CC(=O)N/N=C/c1cccs1` (stereo not given), the inhibition is reported as inconclusive: -9.4%. In the case of `CN(C)c1ccc(NC(=O)c2ccc3nsnc3c2)cc1`, the inhibition is reported as inconclusive: 1.8%. `Cc1ccc(-c2noc(C3CCN(S(=O)(=O)c4ccc5c(c4)OCCO5)CC3)n2)o1` was tested, and the inhibition was inconclusive: 4.2%. `Cc1cc2cc(CNC(=O)Nc3ccc(Cl)c(Cl)c3)ccc2n1C` was tested, and the inhibition was active: 35.3%. For `NS(=O)(=O)c1cccc(NC(=O)c2cccc3c(Br)cccc23)c1`, the inhibition was inconclusive: 6%. For `O=C(CCN1C(=O)c2ccccc2C1=O)Nc1sc2c(c1C(=O)NCc1ccco1)CCCC2`, the inhibition was inconclusive: -2.7%. With `Cc1c(C(=O)Nc2nccs2)oc2ccc(Br)cc12` the inhibition was inactive: -0.2%. With `COC(=O)c1c(NC(=O)C2CC=CCC2C(=O)O)sc(C)c1C` (stereo not given) the inhibition was inconclusive: 2.1%. For `CCCOc1ccc(-c2nn(-c3ccccc3)cc2/C=C2\SC(=S)N(C3CCS(=O)(=O)C3)C2=O)cc1` (stereo not given), the inhibition was active: 49%. In the case of `N#CC1CN(Cc2ccccc2)CN(Cc2ccccc2)C1`, the inhibition is reported as inconclusive: -45.4%. With `Cc1ccc(NCC(=O)Nc2ccc(F)c(Cl)c2)cc1S(=O)(=O)N1CCOCC1` the inhibition was inactive: -0.5%. With `O=C(CN1C(=O)NC2(CCCCC2)C1=O)N1CCN(c2ncccn2)CC1` the inhibition was inconclusive: -4%. `CCCCNS(=O)(=O)c1ccc(OC)c2ncccc12` was tested, and the inhibition was inconclusive: 2%. With `Cc1cc(NC(=O)CSc2nnc(-c3cccc(F)c3)n2N)no1` the inhibition was inactive: -0.1%. In the case of `Cc1ccc(-n2sc3ccccc3c2=O)cc1S(=O)(=O)N1CCCCC1`, the inhibition is reported as active: 32.5%. With `COc1cc2c(cc1OC)CN(CC(=O)Nc1ccc3c(c1)OC(F)(F)O3)CC2` the inhibition was inconclusive: -3.4%. For `O=C(Nc1ccccc1F)N1CCCC1c1cccnc1` (stereo not given), the inhibition was inconclusive: 16.6%. With `O=C(CCl)N1c2ccccc2Oc2ccc3ccccc3c21` the inhibition was active: 30.8%. With `O=C1C(C=NCC2CCCO2)=C(O)c2ccccc21` (stereo not given) the inhibition was inconclusive: -2.5%. In the case of `COc1cccc(-c2nnc3n2N=C(c2cccc(Br)c2)CS3)c1`, the inhibition is reported as inconclusive: -2.2%. `COc1ccc(N2C(=O)CC(N3CCC(O)(c4ccc(Cl)cc4)CC3)C2=O)cc1` (stereo not given) was tested, and the inhibition was inconclusive: -4.2%. With `O=C(NNC(=O)c1ccncc1)NC1CCCCC1` the inhibition was inactive: 0.1%. For `CCOC(=O)c1cn2nc(Oc3ccc(OC)cc3)ccc2n1`, the inhibition was inconclusive: -53.9%. `COc1cccc(NC(=O)CN(C)C(=O)CCCc2nc3ccccc3s2)c1` was tested, and the inhibition was inactive: -7%. With `CC(C)CCNC(=O)CN(Cc1ccc(F)cc1)C(=O)CCC(=O)Nc1ccccn1` the inhibition was inactive: -1.5%. With `Cc1ccc(C(=O)N/C(=C\c2ccc(-c3ccc([N+](=O)[O-])cc3)o2)C(=O)NC2CCS(=O)(=O)C2)cc1` (stereo not given) the inhibition was inactive: 16%. With `C=CCn1c(SCc2ccccc2)nc(O)cc1=O` the inhibition was inactive: 1.1%. `CCn1c(=O)cc(OCC(=O)NCCCN2CCN(c3cccc(Cl)c3)CC2)c2ccccc21` was tested, and the inhibition was inconclusive: -0.8%. In the case of `CC(C)Oc1ccc(S(=O)(=O)N2CCCCC2)cc1NC(=O)C1CCCC1`, the inhibition is reported as inconclusive: 0.6%. With `O=C(NCc1cccnc1)c1ccc2c(=O)n(CCCN3CCCC3=O)c(=S)[nH]c2c1` the inhibition was inconclusive: -2.1%. For `Cc1cccc(NC(=O)OC2CN3CCC2CC3)c1` (stereo not given), the inhibition was inconclusive: 10.9%. With `N#C/C(=C\C=C\c1ccccc1)c1nc(-c2ccc3c(c2)OCO3)cs1` the inhibition was active: 52.5%. For `Cc1ccc(S(=O)(=O)N2CCC(C(=O)OCC(=O)N3CC(=O)Nc4ccccc43)CC2)cc1`, the inhibition was inconclusive: -2.3%. For `COc1ccc2c(c1)cc(C)c1nnc(SCC(=O)N(C)c3nc(-c4ccccc4)cs3)n12`, the inhibition was inconclusive: -56.4%. In the case of `CCN(CC)C(=O)Oc1ccccc1NC(C)=O`, the inhibition is reported as inconclusive: -1.4%. For `CC1CCCN(c2c([N+](=O)[O-])c(=O)oc3ccccc23)C1` (stereo not given), the inhibition was inconclusive: -0.4%.

Reference: PubChem BioAssay AID588499 (NMMLSC, 2011)
